Data taken from ChEMBL document CHEMBL3988442, “University of Dundee, Small-Polar-MMV Screening Library” (2021).

Mtb cholesterol medium: 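Whole-cell growth test on Mycobacterium tuberculosis, read after 4 days in a medium based on cholesterol and the lipid DPPC; the read-out is not stated. Tested at 50 µM. The record gives no direction; compounds that gave an IC50 in retests scored well above the rest, so higher reads as more growth inhibition. Of about 69,000 compounds tested this way, about 370 (0.54%) reached 50% or more in at least one test.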
Mtb glucose medium: 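Growth of Mycobacterium tuberculosis over 3 days (7H9 medium with glucose and tyloxapol); the read-out is not stated. Tested at 50 µM. The record gives no direction; compounds that gave an IC50 in retests scored well above the rest, so higher reads as more growth inhibition. Of about 69,000 compounds tested this way, about 760 (1.1%) reached 50% or more in at least one test.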

The filed quantity is “Percent Effect” (%). The controls that fix the scale are not given in the record; negative values are as filed. This is an unselected part of the compounds tested. Two or more numbers in one place are separate tests of the same structure; such repeats can differ widely.

Compound | Mtb cholesterol medium | Mtb glucose medium
CN(C)c1nccc(C2CN(c3cnccn3)CCO2)n1 (configuration not stated) | -1.106% and -17.83% | -26.31%
Cn1cc(CN2CCOC(c3nccnc3-c3cccc(F)c3)C2)cn1 (configuration not stated) | -10.46% | -47.95%
O=c1cc(N2CCNCC2)cnn1Cc1noc(C2CCCC2)n1 | -8.461% | -4.372% and -0.2208%
Cc1nc(COCc2cnc3n2CCN(C(=O)C2CC2)C3C)cs1 (configuration not stated) | -27.83% | -10.94% and -2.727%
CNS(=O)(=O)CCNC(=O)c1coc(COc2ccc(F)cc2)n1 | -18.78% | -17.18%
O=C(c1ccc(Cl)s1)N1CC(c2nc(-c3ccc[nH]c3=O)no2)C1 | 8.088% | -1.273% and 1.674%
[H][C@]12CN(C(=O)NCc3ccccc3)CCN1C(=O)N(CCOC)C2 | -17.97% | -41.03% and -1.968%
O=c1cc(Cn2ccnc2)nc2n1CCCN(Cc1cccs1)C2 | -7.816% | 32.8%
CN(Cc1ccc(N2CCCCC2)cc1)Cc1noc(C(C)(C)C)n1 | -1.837% | -4.718%
[H][C@@]12CCCN1C[C@@H](CCSC)N(Cc1coc3ccc(Cl)cc3c1=O)C2 | 12.92% and 15.41% | -16.79%
O=C(O)C(F)(F)F.O=C(O)C(F)(F)F.c1cnc(N2CCOCC3(CCCN(CC4CCOCC4)C3)C2)nc1 (configuration not stated) | -6.154% | -6.761% and 4.101%
CO[C@H]1C[C@@H](O)C12CCN(CCOc1ccc(Cl)cc1)CC2 | 6.292% | 21.33%
CC(C)CNC[C@H]1COCc2nc3cccnc3n21 | -35.13% | -3.732% and -23.71%
CN1CCN(C(=O)Cn2nc(C(F)(F)F)c(Br)c2C2CC2)CC1 | -17.56% | 13.34%
Cn1cnc(S(=O)(=O)NCCCN2CCCCCC2)c1Cl | 8.246% | -5.277%
Cn1cc(CN2CCOC(CCNC(=O)c3ccsc3)C2)cn1 (configuration not stated) | 4.301% | -26.46%
COc1cccc(CNCc2ccc(NC(=O)NC(C)C)cc2)c1 | -3.875% | -20.23%
CCOC(=O)CSc1ccc(-c2nc(C)no2)cn1 | 10.25% | 27.81%
CN1CCCC1CNC(=O)CCOc1ccc(Cl)cc1 (configuration not stated) | 4.18% | -1.625%
COCC(O)CNC(=O)c1cnc(-c2ccccc2)nc1O (configuration not stated) | 20.27% | 3.668%
CCc1ccc(S(=O)(=O)Nc2cnccc2C)s1 | 9.772% | 1.076% and 19.13%
CCN(CC)C(=O)c1nnn(-c2ccc(C)cc2)c1C1CC1 | -7.872% | 4.944%
Cc1cnc(C)c(N2CCCC(CO)(Cc3ccccc3C)C2)n1 (configuration not stated) | 7.443% | 0.5112% and -20.45%
c1coc(-c2nc(CNC3CCCNC3)no2)c1 (configuration not stated) | 4.608% | 12.36%
CCn1ccnc1CN1CCN(CC(=O)NC(C2CC2)C2CC2)CC1 | -2.764% | 9.6%
COC(=O)c1ccc(N2CCN(CCC(=O)NC(N)=O)C(C)C2)cc1 (configuration not stated) | -7.221% | 23.62%
CC(Cn1cncn1)NCCN1CCc2ccccc21 (configuration not stated) | -2.843% | 20.43%
Cc1cnn(CCNCCCOc2ccccc2)c1 | 28.28% | 47.24%
O=C(Nc1ccc(F)cc1-c1nc(C2CC2)no1)N1CC[C@@H](O)C1 | 9.478% | 23.94%
CC(C)C(c1cccnc1)N(C)C(=O)Cc1ccc(O)cc1 (configuration not stated) | -14.37% | -4.662%
NC(=O)c1c[nH]nc1NCc1ccc2c(c1)OCO2 | 8.313% | -2.884% and 3.327%
CCCc1noc(CCCC(=O)N2CCCC2c2cnn(C)c2)n1 (configuration not stated) | -5.852% | -12.37%
CC(Oc1ccc(F)c(F)c1)C(=O)N(CC(N)=O)C1CCCC1 (configuration not stated) | -14% and -0.09251% | -6.927%
CCOc1ncccc1NC(=O)c1cc(C)c(C)s1 | 14.62% | 42.89% and 15.91%
CC(C)c1ccc(OCCC(=O)N(C)CC(=O)N(C)C)cc1 | 7.427% | 4.876% and 39.28%
CC(C)c1ncc2c(n1)CN(Cc1noc(-c3ccccc3)n1)CC2 | 18.57% | 31.55%
CC(NC(=O)N1CCC1)c1ccc(S(N)(=O)=O)cc1 (configuration not stated) | -4.481% | 14.55%
Cc1ccc(CN2Cc3nnn(C)c3C(COCc3ccccn3)C2)s1.O=C(O)C(F)(F)F.O=C(O)C(F)(F)F (configuration not stated) | -6.574% | 0.6108%
COc1ccc(C(C)Nc2ncc(C(N)=O)cc2Cl)c(OC)c1 (configuration not stated) | -2.236% | 16.18%
CCOc1ccc(N(C)Cc2nnc(C3CC3)o2)cc1 | 18.42% | 4.358%
CCC(=O)N1CCC2(CC1)CC(CC(=O)N(C)C)c1ccc(F)cc12 (configuration not stated) | -35.59% | -13.8%
COCCN(CCc1ccccc1)Cc1nc2c(cnn2C)c(=O)[nH]1 | -17.82% | 20.04%
O=C1CSC(c2ccc(O)cc2)c2c(n(C3CCOCC3)[nH]c2=O)N1 (configuration not stated) | 0.04331% | 9.718%
COc1ccc(CN2CCC(c3cc(O)nc(C)n3)C2)c(OC)c1.O=C(O)CC(O)(CC(=O)O)C(=O)O (configuration not stated) | -1.272% | 11.61%
[H][C@@]12C[C@@H](c3nc(C)no3)CN(S(=O)(=O)CC)[C@]1([H])CCO2 | 4.288% | 8.707%
Cc1nc2scc(C)n2c1CNc1ccc(C(=O)O)cc1 | -28.29% | 4.883%
Cc1ccccc1C(C(=O)NCCN1CCC(CO)CC1)N(C)C (configuration not stated) | -12.11% | 27.87%
CC(C)N1CCn2c(nc3cc(C(N)=O)ccc32)C1 | -3.184% | 3.308%
OCCN(Cc1cccnc1)c1ccc(Cl)cn1 | 4.022% | 23.73% and 1.978%
[H][C@@]12CS(=O)(=O)C[C@]1([H])N(C(=O)CSc1ccccn1)CCN2CC=C(C)C | -2.856% | -8.237% and -7.849%
CNC(=O)c1cn[nH]c1C1CCN(Cc2cn(C)nc2C)C1 (configuration not stated) | 6.149% | -2.448%
COc1cc2c(cc1CNC(=O)C(C)n1ccnc1C(C)C)CCC2 (configuration not stated) | 11.07% | 3.573% and 16.59%

Repeated from the top, 5 entries:

* CN(C)c1nccc(C2CN(c3cnccn3)CCO2)n1 (configuration not stated) | Mtb cholesterol medium: -1.106% and -17.83%; Mtb glucose medium: -26.31%
* Cn1cc(CN2CCOC(c3nccnc3-c3cccc(F)c3)C2)cn1 (configuration not stated) | Mtb cholesterol medium: -10.46%; Mtb glucose medium: -47.95%
* O=c1cc(N2CCNCC2)cnn1Cc1noc(C2CCCC2)n1 | Mtb cholesterol medium: -8.461%; Mtb glucose medium: -4.372% and -0.2208%
* Cc1nc(COCc2cnc3n2CCN(C(=O)C2CC2)C3C)cs1 (configuration not stated) | Mtb cholesterol medium: -27.83%; Mtb glucose medium: -10.94% and -2.727%
* CNS(=O)(=O)CCNC(=O)c1coc(COc2ccc(F)cc2)n1 | Mtb cholesterol medium: -18.78%; Mtb glucose medium: -17.18%